Earlier results, collected in US20190178889A1, “HIGH-THROUGHPUT SCREENING ASSAY” (BellBrook Labs, priority 2016, published 2019).
At least one compound was matched to its structure with a doubt left.

target: scFvs against haptens; set-up: unit not given beside the values; conditions: affinity-matured scFv against the hapten; cited from earlier work

Question: With `O=C(O)CN1CCN(CC(=O)O)CCN(CC(=O)O)CCN(CC(=O)O)CC1` [DOTA] as the compound, how does the Kd read?
Answer: 8.2 × 10−12

Question: For `C[C@]12CC[C@@H]3c4ccc(O)cc4CC[C@H]3[C@@H]1CC[C@@H]2O` [Estradiol], which Kd is on record?
Answer: 7.7 × 10−11

Question: Which Kd does the source give for `O=C1OC2(c3ccc(O)cc3Oc3cc(O)ccc32)c2ccccc21` [Fluorescein] here?
Answer: 2.7 × 10−13
